Assay results taken from article PMC5691083.
These are yes or no findings as the source states them, for the method shown. In cells and extracts the contact can be indirect. Some results given as binding are weak or reduced against the parent protein; the word gives no strength. Tags and fused reporters may be left off the sequences shown.

Protein sequences, listed by entry. Tags and fused reporters are not part of them.
UniProt Q15796: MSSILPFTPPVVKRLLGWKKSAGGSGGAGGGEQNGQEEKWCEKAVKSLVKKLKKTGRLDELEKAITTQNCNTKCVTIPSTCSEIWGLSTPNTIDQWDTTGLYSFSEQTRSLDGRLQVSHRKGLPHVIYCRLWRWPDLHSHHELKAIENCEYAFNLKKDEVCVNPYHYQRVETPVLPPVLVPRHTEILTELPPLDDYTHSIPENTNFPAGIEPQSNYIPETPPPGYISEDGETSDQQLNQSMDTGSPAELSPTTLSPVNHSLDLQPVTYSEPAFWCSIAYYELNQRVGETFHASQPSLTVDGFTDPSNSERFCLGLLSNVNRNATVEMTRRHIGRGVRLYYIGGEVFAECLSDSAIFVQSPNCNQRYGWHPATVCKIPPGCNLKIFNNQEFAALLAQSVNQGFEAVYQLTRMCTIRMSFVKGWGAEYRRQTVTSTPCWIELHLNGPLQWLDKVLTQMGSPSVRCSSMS
UniProt P84022: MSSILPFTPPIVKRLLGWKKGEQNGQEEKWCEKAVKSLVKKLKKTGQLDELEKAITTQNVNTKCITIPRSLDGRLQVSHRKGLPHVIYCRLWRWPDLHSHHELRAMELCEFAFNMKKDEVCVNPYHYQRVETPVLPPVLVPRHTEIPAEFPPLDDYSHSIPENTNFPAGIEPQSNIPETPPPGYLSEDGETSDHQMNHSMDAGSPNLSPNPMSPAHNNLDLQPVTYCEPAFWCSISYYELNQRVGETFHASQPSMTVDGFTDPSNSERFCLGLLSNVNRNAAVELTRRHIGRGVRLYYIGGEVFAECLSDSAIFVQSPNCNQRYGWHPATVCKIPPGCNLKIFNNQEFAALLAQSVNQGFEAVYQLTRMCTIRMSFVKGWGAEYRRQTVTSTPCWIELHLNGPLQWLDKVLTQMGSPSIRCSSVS
UniProt Q13485: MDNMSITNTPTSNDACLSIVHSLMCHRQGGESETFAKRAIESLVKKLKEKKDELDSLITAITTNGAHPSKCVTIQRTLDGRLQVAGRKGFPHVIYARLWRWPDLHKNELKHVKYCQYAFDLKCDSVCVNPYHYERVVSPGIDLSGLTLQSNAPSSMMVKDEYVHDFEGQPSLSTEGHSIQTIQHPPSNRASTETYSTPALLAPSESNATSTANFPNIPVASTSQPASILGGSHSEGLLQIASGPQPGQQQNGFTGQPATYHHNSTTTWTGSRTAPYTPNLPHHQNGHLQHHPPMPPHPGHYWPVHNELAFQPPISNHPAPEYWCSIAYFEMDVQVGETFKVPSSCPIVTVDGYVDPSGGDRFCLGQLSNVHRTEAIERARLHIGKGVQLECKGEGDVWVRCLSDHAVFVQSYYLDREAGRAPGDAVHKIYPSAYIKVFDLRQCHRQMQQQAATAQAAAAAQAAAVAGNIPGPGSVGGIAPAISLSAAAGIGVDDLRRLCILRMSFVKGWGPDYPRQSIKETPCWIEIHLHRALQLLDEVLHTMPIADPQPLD

Target: T1, myc-RELB (UniProt Q01201)
T1 sequence: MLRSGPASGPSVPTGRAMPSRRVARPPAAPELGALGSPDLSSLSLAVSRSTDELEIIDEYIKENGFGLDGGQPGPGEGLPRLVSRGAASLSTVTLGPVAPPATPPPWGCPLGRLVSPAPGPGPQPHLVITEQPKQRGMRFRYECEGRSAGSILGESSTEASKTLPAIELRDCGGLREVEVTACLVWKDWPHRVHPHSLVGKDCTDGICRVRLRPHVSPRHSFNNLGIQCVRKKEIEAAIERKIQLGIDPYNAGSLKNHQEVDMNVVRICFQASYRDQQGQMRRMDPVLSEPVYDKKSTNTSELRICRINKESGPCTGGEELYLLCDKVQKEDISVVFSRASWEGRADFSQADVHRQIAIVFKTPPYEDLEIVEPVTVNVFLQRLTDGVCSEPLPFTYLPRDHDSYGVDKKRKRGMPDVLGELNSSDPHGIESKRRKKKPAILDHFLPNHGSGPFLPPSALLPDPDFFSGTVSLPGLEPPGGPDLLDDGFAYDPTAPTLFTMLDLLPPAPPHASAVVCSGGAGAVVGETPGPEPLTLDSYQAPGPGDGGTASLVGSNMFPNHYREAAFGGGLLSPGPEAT
Experiment: cross-linking + co-IP; HEK293T co-transfected; cells cross-linked with 1% para-formaldehyde 10 min, lysed in 1% SDS, sonicated, diluted to 0.1% SDS with IGEPAL buffer; anti-myc agarose beads 4 h; immunoblotting

| Substance | binding |
| --- | --- |
| epitope-tagged SMAD2 (from UniProt Q15796 1-467) | binds |
| epitope-tagged SMAD3 (from UniProt P84022 1-425) | binds |
| epitope-tagged SMAD4 (from UniProt Q13485 1-552) | binds |
